Experimental data from PubChem BioAssay AID248 (DTP/NCI, 2004).
The list does not hold the whole screen: it gathers tests that were run many times, whatever their T/C, doses with no T/C, and many T/C values between a quarter and a half above the control. Other doses and runs of a compound stand elsewhere. T/C gives the treated animals as a percentage of the vehicle group. Some doses have a count of surviving animals in place of a T/C: the source holds a T/C of zero for them, seemingly a mark for toxic or unscored doses. Some doses without a T/C left all or most animals alive at the check, yet need not have been tolerated: survival well below the control is almost never listed, so the zero probably covers shortened survival too. Survivors were counted at the toxicity check, usually on the fifth day, unless a day is given; later deaths do not show. Schedule codes are those of the source, taken here to give the interval after Q, in days (D) or hours (H), and the number of doses after X. Some schedule codes hold Z or #, which are not explained here. Where survival is the endpoint, this PubChem deposit counts one and a half times the control or more as active, and values a quarter to a half above the control carry no call in these data; other NCI protocols may use other cut-offs.

System: L1210 leukemia ip in BDF1 mice, survival T/C
Assay: NCI In Vivo Anticancer Drug Screen. Data for tumor model L1210 Leukemia (intraperitoneal) in B6D2F1 (BDF1) mice
Settings: T/C endpoint: mean survival time, higher T/C = longer survival
[1] = dose: 200.0 mg/kg/injection, schedule: Q01DX001 (ip), vehicle: saline
[2] = dose: 400.0 mg/kg/injection, schedule: Q01DX001 (ip), vehicle: saline
[3] = dose: 100.0 mg/kg/injection, schedule: Q01DX001 (ip), vehicle: carboxymethylcellulose (CMC)
[4] = dose: 400.0 mg/kg/injection, schedule: Q01DX001 (ip), vehicle: carboxymethylcellulose (CMC)
[5] = dose: 400.0 mg/kg/injection, schedule: Q04DX003 (ip), vehicle: saline
[6] = dose: 400.0 mg/kg/injection, schedule: Q04DX003 (ip), vehicle: Klucel (hydroxypropylcellulose) (HPC)
[7] = dose: 150.0 mg/kg/injection, schedule: Q01DX001 (ip), vehicle: saline
[8] = dose: 300.0 mg/kg/injection, schedule: Q01DX001 (ip), vehicle: saline
[9] = dose: 400.0 mg/kg/injection, schedule: Q04DX003 (ip), vehicle: saline with Tween-80
[10] = dose: 100.0 mg/kg/injection, schedule: Q04DX003 (ip), vehicle: Klucel (hydroxypropylcellulose) (HPC)
[11] = dose: 200.0 mg/kg/injection, schedule: Q04DX003 (ip), vehicle: Klucel (hydroxypropylcellulose) (HPC)
[12] = dose: 100.0 mg/kg/injection, schedule: Q04DX002 (ip), vehicle: Klucel (hydroxypropylcellulose) (HPC)
[13] = dose: 400.0 mg/kg/injection, schedule: Q01DX009 (ip), vehicle: Klucel (hydroxypropylcellulose) (HPC)

For Cc1ccc([I+]c2ccc(C)cc2C)c(C)c1, the survivor count (dose: 9.2 mg/kg/injection, schedule: Q01DX009 (ip), vehicle: saline with Tween-80) was 4 of 6, the survivor count (dose: 12.5 mg/kg/injection, schedule: Q04DX003 (ip), vehicle: acetone) was 6 of 6 and the survivor count (dose: 14.0 mg/kg/injection, schedule: Q01DX009 (ip), vehicle: saline with Tween-80) was 2 of 6. For the same compound, the survivor count (dose: 21.0 mg/kg/injection, schedule: Q01DX009 (ip), vehicle: saline with Tween-80) was 0 of 6, the survivor count (dose: 25.0 mg/kg/injection, schedule: Q04DX003 (ip), vehicle: acetone) was 2 of 6 and the survivor count (dose: 50.0 mg/kg/injection, schedule: Q01DX001 (ip), vehicle: saline) was 0 of 6. For the same compound, the survivor count (dose: 50.0 mg/kg/injection, schedule: Q04DX003 (ip), vehicle: acetone) was 0 of 6, the survivor count (dose: 100.0 mg/kg/injection, schedule: Q01DX001 (ip), vehicle: saline) was 0 of 6 and the survivor count [1] was 0 of 6. The survivor count [2] was 0 of 6.
ClCCN(CCCl)c1ccc(CNCCCNCc2ccc(N(CCCl)CCCl)cc2Cl)c(Cl)c1 was tested, and the survivor count [3] was 1 of 4, the survivor count (dose: 200.0 mg/kg/injection, schedule: Q01DX001 (ip), vehicle: carboxymethylcellulose (CMC)) was 0 of 4 and the survivor count [4] was 0 of 4.
For Cn1ncc2c(NCc3ccccc3)ncnc21, the survivor count [2] was 0 of 6.
For CC1=NCCN1CCN=C(N)CCl, the survivor count (dose: 100.0 mg/kg/injection, schedule: Q01DX009 (ip), vehicle: saline) was 1 of 3, the survivor count (dose: 100.0 mg/kg/injection, schedule: Q04DX002 (ip), vehicle: saline) was 3 of 3 and the survivor count (dose: 200.0 mg/kg/injection, schedule: Q04DX002 (ip), vehicle: saline) was 0 of 3. For the same compound, the survivor count (dose: 400.0 mg/kg/injection, schedule: Q04DX002 (ip), vehicle: saline) was 1 of 3.
CC1(C)CCC2(C(=O)OC3OC(CO)C(O)C(O)C3O)CCC3(CO)C(=CCC4C5(C)CC(O)C(O)C(C)(C(=O)OC6OC(CO)C(O)C(O)C6O)C5CCC43C)C2C1 (centres undefined) was tested, and the survivor count (dose: 150.0 mg/kg/injection, schedule: Q01DX001 (sc), vehicle: steroid suspending solution) was 3 of 6.
Nc1cccc(COc2ccccc2)c1 was tested, and the survivor count [5] was 2 of 6.
For C=CS(=O)(=O)c1ccccc1Cl, the survivor count [6] was 0 of 6.
With NS(=O)(=O)N1CCCCC1 the survivor count (dose: 75.0 mg/kg/injection, schedule: Q01DX001 (ip), vehicle: saline) was 2 of 6, the survivor count [7] was 0 of 6 and the survivor count [8] was 0 of 6.
COc1cc(C(C)=O)cc([N+](=O)[O-])c1O was tested, and the survivor count [9] was 1 of 6.
For C=C(Br)CNC(=O)C1CCCCC1, the survivor count [10] was 5 of 6, the survivor count [11] was 0 of 6 and the survivor count [6] was 0 of 6.
With O=C(N/N=C/c1c(Cl)cccc1Cl)C1CCCO1 (centres undefined) the survivor count (dose: 50.0 mg/kg/injection, schedule: Q01DX009 (ip), vehicle: Klucel (hydroxypropylcellulose) (HPC)) was 3 of 6, the survivor count (dose: 100.0 mg/kg/injection, schedule: Q01DX009 (ip), vehicle: Klucel (hydroxypropylcellulose) (HPC)) was 0 of 6 and the survivor count [12] was 1 of 3. For the same compound, the survivor count (dose: 200.0 mg/kg/injection, schedule: Q04DX002 (ip), vehicle: Klucel (hydroxypropylcellulose) (HPC)) was 0 of 3 and the survivor count (dose: 400.0 mg/kg/injection, schedule: Q04DX002 (ip), vehicle: Klucel (hydroxypropylcellulose) (HPC)) was 0 of 3.
In the case of COc1cc(OC)cc(C(O)C(C)NC(C)C)c1 (centres undefined), the survivor count (dose: 200.0 mg/kg/injection, schedule: Q01DX009 (ip), vehicle: Klucel (hydroxypropylcellulose) (HPC)) is reported as 1 of 6, the survivor count (dose: 200.0 mg/kg/injection, schedule: Q04DX003 (ip), vehicle: saline) is reported as 2 of 4 and the survivor count [13] is reported as 1 of 6.
With CC1=N/C(=C/c2ccc([N+](=O)[O-])s2)C(=O)O1 the survivor count [12] was 3 of 3.
CC(=O)OCN1C(=O)C2C3CCC(O3)C2C1=O (centres undefined) was tested, and the survivor count (dose: 200.0 mg/kg/injection, schedule: Q04DX003 (ip), vehicle: saline with Tween-80) was 5 of 6, the survivor count (dose: 400.0 mg/kg/injection, schedule: Q01DX001 (ip), vehicle: saline with Tween-80) was 0 of 6 and the survivor count [9] was 0 of 6.
In the case of O=C(O)/C=C\Br, the survivor count (dose: 200.0 mg/kg/injection, schedule: Q01DX005 (ip), vehicle: Klucel (hydroxypropylcellulose) (HPC)) is reported as 0 of 3.
Ic1cccc2cc3cccc[n+]3cc12 was tested, and the survivor count (dose: 33.0 mg/kg/injection, schedule: Q01DX Z (ip), vehicle: carboxymethylcellulose (CMC)) was 5 of 6.
For O=C(CCl)NCCCCCNC(=O)CCl, the survivor count [13] was 0 of 6.
COc1ccc(C)c(CN(C)C)c1 was tested, and the survivor count [1] was 2 of 4 and the survivor count [2] was 0 of 4.
In the case of C=C(Cl)CN(C)CC(=C)Cl, the survivor count [1] is reported as 0 of 6 and the survivor count [2] is reported as 0 of 6.
In the case of O=NN(CCCl)C(=O)Nc1ccc(CCCl)cc1, the T/C (dose: 5.0 mg/kg/injection, schedule: Q01DX001 (ip), vehicle: carboxymethylcellulose (CMC)) is reported as 129 % of control, the survivor count (dose: 75.0 mg/kg/injection, schedule: Q01DX009 (ip), vehicle: carboxymethylcellulose (CMC)) is reported as 6 of 6 and the survivor count (dose: 112.5 mg/kg/injection, schedule: Q01DX001 (ip), vehicle: carboxymethylcellulose (CMC)) is reported as 6 of 6. For the same compound, the survivor count (dose: 112.5 mg/kg/injection, schedule: Q01DX009 (ip), vehicle: carboxymethylcellulose (CMC)) was 3 of 6, the survivor count (dose: 150.0 mg/kg/injection, schedule: Q01DX001 (ip), vehicle: carboxymethylcellulose (CMC)) was 3 of 6 and the survivor count (dose: 300.0 mg/kg/injection, schedule: Q01DX001 (ip), vehicle: carboxymethylcellulose (CMC)) was 2 of 6.
With CC(C)(C)C1CCC(NC2=NCCO2)CC1 (centres undefined) the survivor count (dose: 200.0 mg/kg/injection, schedule: Q01DX001 (ip), vehicle: Klucel (hydroxypropylcellulose) (HPC)) was 0 of 6, the survivor count [11] was 1 of 6 and the survivor count (dose: 400.0 mg/kg/injection, schedule: Q01DX001 (ip), vehicle: Klucel (hydroxypropylcellulose) (HPC)) was 0 of 6.
For O=C(Nc1ccc(O)cc1)OCc1ccccc1, the T/C [10] was 135 % of control and the survivor count (dose: 150.0 mg/kg/injection, schedule: Q04DX003 (ip), vehicle: Klucel (hydroxypropylcellulose) (HPC)) was 5 of 6.
Cc1cc(CN)c(C)cc1CN was tested, and the survivor count [5] was 0 of 6.
In the case of CCOC(C)C(/C=N/NC(N)=S)=NNC(N)=S (centres undefined), the survivor count (dose: 120.0 mg/kg/injection, schedule: Q01DX010 (ip), vehicle: saline) is reported as 6 of 6, the survivor count (dose: 240.0 mg/kg/injection, schedule: Q01DX Z (ip), vehicle: carboxymethylcellulose (CMC)) is reported as 2 of 6 and the survivor count (dose: 480.0 mg/kg/injection, schedule: Q01DX Z (ip), vehicle: carboxymethylcellulose (CMC)) is reported as 0 of 6. For the same compound, the survivor count (dose: 480.0 mg/kg/injection, schedule: Q01DX Z (oral), vehicle: carboxymethylcellulose (CMC)) was 0 of 6.
In the case of ClCc1cccc2c(CCl)cccc12, the survivor count [1] is reported as 2 of 4 and the survivor count [2] is reported as 1 of 4.
In the case of CCCC[n+]1cccc(C(=O)c2ccccc2)c1, the survivor count [7] is reported as 2 of 6 and the survivor count [8] is reported as 0 of 6.
With Cc1ccc(N(N)c2ccc(C)cc2)cc1 the survivor count [13] was 3 of 6.
With CC(C)(C)C(=O)C(C)(C)C the survivor count [4] was 2 of 4.
O=S1(=O)C=CCC1 was tested, and the survivor count [4] was 2 of 4 and the survivor count (dose: 400.0 mg/kg/injection, schedule: Q01DX009 (ip), vehicle: saline) was 1 of 6.
For C[Si](C)(C)Cc1ccccc1, the survivor count [3] was 4 of 4 and the survivor count [4] was 4 of 4.
In the case of CCOC(=O)c1[nH]c(C)c(C)c1-c1ccccc1, the survivor count [6] is reported as 6 of 6.
In the case of OC(Nc1ccccn1)(C(F)(F)F)C(F)(F)F, the survivor count [1] is reported as 0 of 4 and the survivor count [2] is reported as 0 of 4.
With NNC(=S)Nc1cccc(Cl)c1 the survivor count [8] was 0 of 6.
For NCC(OC1CCCCC1)C(Cl)(Cl)Cl (centres undefined), the survivor count (dose: 200.0 mg/kg/injection, schedule: Q01DX009 (ip), vehicle: saline with Tween-80) was 2 of 6.
For CCCCSCC(N)CO (centres undefined), the survivor count [5] was 1 of 6.
